From PMC12697865, “ZFPL1 Promotes Colorectal Cancer Progression by Stabilizing ASS1 to Drive the Urea Cycle and M2 Macrophage‐Mediated Metastatic Colonization” (Advanced Science, 2025) come the findings set out here.

Test [1] concerns the target T1, Flag-tagged ZFPL1-WT (zinc finger protein-like 1) (human) (UniProt O95159).
T1 sequence: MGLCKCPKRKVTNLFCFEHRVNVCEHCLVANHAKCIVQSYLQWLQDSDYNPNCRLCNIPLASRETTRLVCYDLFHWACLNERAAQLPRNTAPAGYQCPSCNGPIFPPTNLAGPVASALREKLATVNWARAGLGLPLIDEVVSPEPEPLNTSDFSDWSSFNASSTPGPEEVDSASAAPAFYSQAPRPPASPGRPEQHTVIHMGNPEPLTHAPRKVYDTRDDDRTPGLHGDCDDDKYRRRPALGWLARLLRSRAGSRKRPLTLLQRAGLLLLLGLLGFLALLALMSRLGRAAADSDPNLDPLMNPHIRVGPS
Nature of the test: co-IP; HEK293T cells transfected with His-tagged ASS1 (WT or Mut) and Flag-tagged ZFPL1 (WT or Mut); IP kit, immunoblot. For orientation: Immunoblotting shows a protein as a band on a membrane.

Test [2] addresses T2, Purified recombinant ZFPL1 protein (bait of the GST pull-down) (human) (UniProt O95159).
T2 sequence: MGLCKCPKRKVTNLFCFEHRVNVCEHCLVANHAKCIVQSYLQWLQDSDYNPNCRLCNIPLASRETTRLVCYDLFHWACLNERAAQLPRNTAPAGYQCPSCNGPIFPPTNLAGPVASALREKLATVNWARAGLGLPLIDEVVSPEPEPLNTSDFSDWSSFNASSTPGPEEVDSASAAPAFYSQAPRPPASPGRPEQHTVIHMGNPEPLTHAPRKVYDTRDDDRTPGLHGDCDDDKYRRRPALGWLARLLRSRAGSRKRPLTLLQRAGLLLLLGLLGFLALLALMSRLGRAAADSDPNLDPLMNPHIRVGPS
Put plainly: pull-down; GST pull-down: 15 µg purified recombinant ZFPL1 on glutathione agarose, 4 °C, 1 h, then 15 µg purified recombinant ASS1 for 1 h; eluate by SDS-PAGE and Western blot; GST as negative control; both purified.

In test [3] the target is T3, Fluorescently labelled ZFPL1 (MST) (human) (UniProt O95159).
T3 sequence (chain, fluorescent label (dye and site not stated)): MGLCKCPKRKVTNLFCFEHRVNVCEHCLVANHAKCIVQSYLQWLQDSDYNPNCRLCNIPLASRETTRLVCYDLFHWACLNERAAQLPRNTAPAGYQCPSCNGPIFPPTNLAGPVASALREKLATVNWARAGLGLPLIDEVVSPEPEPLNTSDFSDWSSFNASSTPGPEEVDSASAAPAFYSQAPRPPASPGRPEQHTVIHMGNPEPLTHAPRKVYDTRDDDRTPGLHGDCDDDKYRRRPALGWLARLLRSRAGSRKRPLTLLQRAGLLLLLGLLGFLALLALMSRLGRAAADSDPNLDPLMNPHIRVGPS
Put plainly: MST; fluorescently labelled ZFPL1 mixed with varying concentrations of ASS1; Monolith NT.115; buffer pH 7.4, 1 mM MgCl2, 3 mM KCl, 150 mM NaCl, 0.05% Tween-20; also with Salvianolic acid B added; both purified.

Test [4] deals with T4, ASS1 in CRC cells (UniProt P00966).
T4 sequence: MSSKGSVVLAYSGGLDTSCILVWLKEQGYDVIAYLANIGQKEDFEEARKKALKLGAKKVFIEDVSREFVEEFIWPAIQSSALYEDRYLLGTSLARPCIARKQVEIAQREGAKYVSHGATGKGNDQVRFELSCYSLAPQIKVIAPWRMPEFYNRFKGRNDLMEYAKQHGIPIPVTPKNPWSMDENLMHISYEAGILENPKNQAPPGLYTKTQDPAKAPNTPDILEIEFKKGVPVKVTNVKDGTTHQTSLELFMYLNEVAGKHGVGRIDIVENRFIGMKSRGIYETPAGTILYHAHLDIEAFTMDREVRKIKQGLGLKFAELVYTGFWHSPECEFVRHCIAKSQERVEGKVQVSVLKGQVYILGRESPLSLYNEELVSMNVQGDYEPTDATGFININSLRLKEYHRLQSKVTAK
Put plainly: co-IP; co-IP of ASS1 and TRIM33 in CRC cells; IP kit, immunoblot.

Results are given in words; binding and its absence hold for the method and conditions named. For some of these results: In cells and extracts the contact can be indirect. Some entries that bind do so weakly or less than the wild type. For some of these results: Sequences can lack the tags named with a protein.

B1: His-tagged ASS1-WT (argininosuccinate synthase 1) (protein, UniProt P00966 1-412)
chain: MSSKGSVVLAYSGGLDTSCILVWLKEQGYDVIAYLANIGQKEDFEEARKKALKLGAKKVFIEDVSREFVEEFIWPAIQSSALYEDRYLLGTSLARPCIARKQVEIAQREGAKYVSHGATGKGNDQVRFELSCYSLAPQIKVIAPWRMPEFYNRFKGRNDLMEYAKQHGIPIPVTPKNPWSMDENLMHISYEAGILENPKNQAPPGLYTKTQDPAKAPNTPDILEIEFKKGVPVKVTNVKDGTTHQTSLELFMYLNEVAGKHGVGRIDIVENRFIGMKSRGIYETPAGTILYHAHLDIEAFTMDREVRKIKQGLGLKFAELVYTGFWHSPECEFVRHCIAKSQERVEGKVQVSVLKGQVYILGRESPLSLYNEELVSMNVQGDYEPTDATGFININSLRLKEYHRLQSKVTAK
On to B1, for which the binding entry in test [1] is on record as “binds”.

B2: Purified recombinant ASS1 protein (prey of the GST pull-down) (protein, UniProt P00966 1-412)
chain: MSSKGSVVLAYSGGLDTSCILVWLKEQGYDVIAYLANIGQKEDFEEARKKALKLGAKKVFIEDVSREFVEEFIWPAIQSSALYEDRYLLGTSLARPCIARKQVEIAQREGAKYVSHGATGKGNDQVRFELSCYSLAPQIKVIAPWRMPEFYNRFKGRNDLMEYAKQHGIPIPVTPKNPWSMDENLMHISYEAGILENPKNQAPPGLYTKTQDPAKAPNTPDILEIEFKKGVPVKVTNVKDGTTHQTSLELFMYLNEVAGKHGVGRIDIVENRFIGMKSRGIYETPAGTILYHAHLDIEAFTMDREVRKIKQGLGLKFAELVYTGFWHSPECEFVRHCIAKSQERVEGKVQVSVLKGQVYILGRESPLSLYNEELVSMNVQGDYEPTDATGFININSLRLKEYHRLQSKVTAK
On to B2, for which the binding result in test [2] is “binds”.

B3: ASS1-WT (MST) (protein, UniProt P00966 1-412)
chain: MSSKGSVVLAYSGGLDTSCILVWLKEQGYDVIAYLANIGQKEDFEEARKKALKLGAKKVFIEDVSREFVEEFIWPAIQSSALYEDRYLLGTSLARPCIARKQVEIAQREGAKYVSHGATGKGNDQVRFELSCYSLAPQIKVIAPWRMPEFYNRFKGRNDLMEYAKQHGIPIPVTPKNPWSMDENLMHISYEAGILENPKNQAPPGLYTKTQDPAKAPNTPDILEIEFKKGVPVKVTNVKDGTTHQTSLELFMYLNEVAGKHGVGRIDIVENRFIGMKSRGIYETPAGTILYHAHLDIEAFTMDREVRKIKQGLGLKFAELVYTGFWHSPECEFVRHCIAKSQERVEGKVQVSVLKGQVYILGRESPLSLYNEELVSMNVQGDYEPTDATGFININSLRLKEYHRLQSKVTAK
With B3, the binding result in test [3] is on record as “binds”.

B4: TRIM33 (tripartite motif containing 33) in CRC cells (protein, UniProt Q9UPN9 1-1127)
chain: MAENKGGGEAESGGGGSGSAPVTAGAAGPAAQEAEPPLTAVLVEEEEEEGGRAGAEGGAAGPDDGGVAAASSGSAQAASSPAASVGTGVAGGAVSTPAPAPASAPAPGPSAGPPPGPPASLLDTCAVCQQSLQSRREAEPKLLPCLHSFCLRCLPEPERQLSVPIPGGSNGDIQQVGVIRCPVCRQECRQIDLVDNYFVKDTSEAPSSSDEKSEQVCTSCEDNASAVGFCVECGEWLCKTCIEAHQRVKFTKDHLIRKKEDVSESVGASGQRPVFCPVHKQEQLKLFCETCDRLTCRDCQLLEHKEHRYQFLEEAFQNQKGAIENLLAKLLEKKNYVHFAATQVQNRIKEVNETNKRVEQEIKVAIFTLINEINKKGKSLLQQLENVTKERQMKLLQQQNDITGLSRQVKHVMNFTNWAIASGSSTALLYSKRLITFQLRHILKARCDPVPAANGAIRFHCDPTFWAKNVVNLGNLVIESKPAPGYTPNVVVGQVPPGTNHISKTPGQINLAQLRLQHMQQQVYAQKHQQLQQMRMQQPPAPVPTTTTTTQQHPRQAAPQMLQQQPPRLISVQTMQRGNMNCGAFQAHQMRLAQNAARIPGIPRHSGPQYSMMQPHLQRQHSNPGHAGPFPVVSVHNTTINPTSPTTATMANANRGPTSPSVTAIELIPSVTNPENLPSLPDIPPIQLEDAGSSSLDNLLSRYISGSHLPPQPTSTMNPSPGPSALSPGSSGLSNSHTPVRPPSTSSTGSRGSCGSSGRTAEKTSLSFKSDQVKVKQEPGTEDEICSFSGGVKQEKTEDGRRSACMLSSPESSLTPPLSTNLHLESELDALASLENHVKIEPADMNESCKQSGLSSLVNGKSPIRSLMHRSARIGGDGNNKDDDPNEDWCAVCQNGGDLLCCEKCPKVFHLTCHVPTLLSFPSGDWICTFCRDIGKPEVEYDCDNLQHSKKGKTAQGLSPVDQRKCERLLLYLYCHELSIEFQEPVPASIPNYYKIIKKPMDLSTVKKKLQKKHSQHYQIPDDFVADVRLIFKNCERFNEMMKVVQVYADTQEINLKADSEVAQAGKAVALYFEDKLTEIYSDRTFAPLPEFEQEEDDGEVTEDSDEDFIQPRRKRLKSDERPVHIK
For B4, the binding entry in test [4] is listed as “binds”.
